No constants are given. Whether binding was seen depends on the method and setting. Binding seen in cells or lysates may run through a third protein. These calls come from enrichment with a bait or labelling near it, and not all partners need be listed. Sequences can lack the tags named with a protein.

Amino acid sequences for entries named in this document (tags omitted).
UniProt Q7Z4S6: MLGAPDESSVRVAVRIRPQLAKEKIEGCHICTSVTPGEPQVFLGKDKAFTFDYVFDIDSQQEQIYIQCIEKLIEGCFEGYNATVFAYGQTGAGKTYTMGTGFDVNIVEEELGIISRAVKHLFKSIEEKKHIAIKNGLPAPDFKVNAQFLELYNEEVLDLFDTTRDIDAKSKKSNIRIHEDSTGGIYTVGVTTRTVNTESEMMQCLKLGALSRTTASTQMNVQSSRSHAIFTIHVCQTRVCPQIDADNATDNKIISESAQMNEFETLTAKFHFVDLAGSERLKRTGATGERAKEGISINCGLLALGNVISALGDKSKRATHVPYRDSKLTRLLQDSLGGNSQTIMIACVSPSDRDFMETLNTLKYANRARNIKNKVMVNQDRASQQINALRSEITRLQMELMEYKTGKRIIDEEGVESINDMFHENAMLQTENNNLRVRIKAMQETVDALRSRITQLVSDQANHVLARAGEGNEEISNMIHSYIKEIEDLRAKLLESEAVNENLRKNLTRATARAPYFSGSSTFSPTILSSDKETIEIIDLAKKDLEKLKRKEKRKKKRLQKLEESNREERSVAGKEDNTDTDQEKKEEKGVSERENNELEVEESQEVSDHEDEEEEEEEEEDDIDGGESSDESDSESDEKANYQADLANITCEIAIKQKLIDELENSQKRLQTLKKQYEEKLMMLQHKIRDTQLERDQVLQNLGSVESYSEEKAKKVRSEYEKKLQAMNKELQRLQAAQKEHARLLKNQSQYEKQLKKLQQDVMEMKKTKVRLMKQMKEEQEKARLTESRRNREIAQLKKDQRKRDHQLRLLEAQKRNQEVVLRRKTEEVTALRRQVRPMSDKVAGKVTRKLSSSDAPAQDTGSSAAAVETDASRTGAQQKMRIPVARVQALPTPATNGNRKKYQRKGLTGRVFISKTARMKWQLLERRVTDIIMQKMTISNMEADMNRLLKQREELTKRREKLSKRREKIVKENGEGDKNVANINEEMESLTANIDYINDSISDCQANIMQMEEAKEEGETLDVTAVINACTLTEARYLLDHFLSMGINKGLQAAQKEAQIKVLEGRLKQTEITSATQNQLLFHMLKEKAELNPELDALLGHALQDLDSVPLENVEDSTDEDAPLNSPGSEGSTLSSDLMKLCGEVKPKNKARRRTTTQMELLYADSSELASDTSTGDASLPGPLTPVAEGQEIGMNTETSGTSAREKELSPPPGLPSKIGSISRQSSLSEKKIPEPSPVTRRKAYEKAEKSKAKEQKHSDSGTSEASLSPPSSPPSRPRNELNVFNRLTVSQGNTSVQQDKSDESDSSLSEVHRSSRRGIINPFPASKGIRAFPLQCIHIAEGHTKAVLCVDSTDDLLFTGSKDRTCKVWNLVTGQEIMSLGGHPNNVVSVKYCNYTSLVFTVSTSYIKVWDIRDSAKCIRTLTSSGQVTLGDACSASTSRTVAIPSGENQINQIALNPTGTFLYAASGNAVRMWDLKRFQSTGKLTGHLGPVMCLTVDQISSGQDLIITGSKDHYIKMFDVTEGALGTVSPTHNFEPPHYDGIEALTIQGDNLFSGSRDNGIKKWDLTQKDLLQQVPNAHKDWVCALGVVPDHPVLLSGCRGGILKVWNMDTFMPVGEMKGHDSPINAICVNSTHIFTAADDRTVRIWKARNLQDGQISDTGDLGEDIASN
UniProt Q86W92: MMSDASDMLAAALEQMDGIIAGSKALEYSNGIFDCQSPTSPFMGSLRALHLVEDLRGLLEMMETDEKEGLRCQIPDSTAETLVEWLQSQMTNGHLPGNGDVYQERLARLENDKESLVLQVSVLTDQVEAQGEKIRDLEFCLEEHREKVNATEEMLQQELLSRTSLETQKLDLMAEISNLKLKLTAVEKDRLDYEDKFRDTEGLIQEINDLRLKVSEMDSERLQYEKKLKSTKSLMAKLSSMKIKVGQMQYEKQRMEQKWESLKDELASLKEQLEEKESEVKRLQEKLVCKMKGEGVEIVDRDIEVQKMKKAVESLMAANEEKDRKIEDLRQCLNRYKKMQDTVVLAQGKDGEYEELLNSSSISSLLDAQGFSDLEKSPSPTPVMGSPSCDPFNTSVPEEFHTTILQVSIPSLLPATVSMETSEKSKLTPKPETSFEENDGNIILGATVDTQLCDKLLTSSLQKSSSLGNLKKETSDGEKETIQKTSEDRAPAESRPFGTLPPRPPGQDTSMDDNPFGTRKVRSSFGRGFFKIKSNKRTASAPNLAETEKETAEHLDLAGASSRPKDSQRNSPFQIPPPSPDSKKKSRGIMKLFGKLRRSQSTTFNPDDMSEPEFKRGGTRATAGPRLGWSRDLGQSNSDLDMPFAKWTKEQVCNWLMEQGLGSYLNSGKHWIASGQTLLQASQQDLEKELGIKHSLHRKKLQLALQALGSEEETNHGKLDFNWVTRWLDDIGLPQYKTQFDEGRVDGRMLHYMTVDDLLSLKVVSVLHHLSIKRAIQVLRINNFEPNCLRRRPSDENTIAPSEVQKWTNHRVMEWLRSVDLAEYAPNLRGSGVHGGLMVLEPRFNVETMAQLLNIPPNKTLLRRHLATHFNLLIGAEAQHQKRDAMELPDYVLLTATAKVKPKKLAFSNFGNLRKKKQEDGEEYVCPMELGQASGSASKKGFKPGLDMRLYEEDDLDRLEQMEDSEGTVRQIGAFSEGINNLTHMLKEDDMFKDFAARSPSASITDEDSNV
UniProt P31946: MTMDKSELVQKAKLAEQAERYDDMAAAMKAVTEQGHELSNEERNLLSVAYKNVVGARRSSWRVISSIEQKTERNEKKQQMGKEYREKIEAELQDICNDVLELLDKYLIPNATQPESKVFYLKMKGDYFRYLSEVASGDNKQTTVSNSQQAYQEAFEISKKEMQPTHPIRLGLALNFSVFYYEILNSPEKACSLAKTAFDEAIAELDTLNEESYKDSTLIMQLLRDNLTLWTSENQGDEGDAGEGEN
UniProt P62258: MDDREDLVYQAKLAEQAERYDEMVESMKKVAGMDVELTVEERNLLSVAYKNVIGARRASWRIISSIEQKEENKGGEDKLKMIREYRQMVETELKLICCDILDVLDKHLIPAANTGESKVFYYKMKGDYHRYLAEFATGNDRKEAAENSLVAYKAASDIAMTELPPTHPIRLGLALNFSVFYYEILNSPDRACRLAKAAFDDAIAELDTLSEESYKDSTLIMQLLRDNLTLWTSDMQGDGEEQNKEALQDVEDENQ

Test [1] has as its target T1, green fluorescent protein (GFP)-tagged KANK1 (KANK1-GFP), expressed in MCF7 cells (UniProt Q14678).
T1 sequence: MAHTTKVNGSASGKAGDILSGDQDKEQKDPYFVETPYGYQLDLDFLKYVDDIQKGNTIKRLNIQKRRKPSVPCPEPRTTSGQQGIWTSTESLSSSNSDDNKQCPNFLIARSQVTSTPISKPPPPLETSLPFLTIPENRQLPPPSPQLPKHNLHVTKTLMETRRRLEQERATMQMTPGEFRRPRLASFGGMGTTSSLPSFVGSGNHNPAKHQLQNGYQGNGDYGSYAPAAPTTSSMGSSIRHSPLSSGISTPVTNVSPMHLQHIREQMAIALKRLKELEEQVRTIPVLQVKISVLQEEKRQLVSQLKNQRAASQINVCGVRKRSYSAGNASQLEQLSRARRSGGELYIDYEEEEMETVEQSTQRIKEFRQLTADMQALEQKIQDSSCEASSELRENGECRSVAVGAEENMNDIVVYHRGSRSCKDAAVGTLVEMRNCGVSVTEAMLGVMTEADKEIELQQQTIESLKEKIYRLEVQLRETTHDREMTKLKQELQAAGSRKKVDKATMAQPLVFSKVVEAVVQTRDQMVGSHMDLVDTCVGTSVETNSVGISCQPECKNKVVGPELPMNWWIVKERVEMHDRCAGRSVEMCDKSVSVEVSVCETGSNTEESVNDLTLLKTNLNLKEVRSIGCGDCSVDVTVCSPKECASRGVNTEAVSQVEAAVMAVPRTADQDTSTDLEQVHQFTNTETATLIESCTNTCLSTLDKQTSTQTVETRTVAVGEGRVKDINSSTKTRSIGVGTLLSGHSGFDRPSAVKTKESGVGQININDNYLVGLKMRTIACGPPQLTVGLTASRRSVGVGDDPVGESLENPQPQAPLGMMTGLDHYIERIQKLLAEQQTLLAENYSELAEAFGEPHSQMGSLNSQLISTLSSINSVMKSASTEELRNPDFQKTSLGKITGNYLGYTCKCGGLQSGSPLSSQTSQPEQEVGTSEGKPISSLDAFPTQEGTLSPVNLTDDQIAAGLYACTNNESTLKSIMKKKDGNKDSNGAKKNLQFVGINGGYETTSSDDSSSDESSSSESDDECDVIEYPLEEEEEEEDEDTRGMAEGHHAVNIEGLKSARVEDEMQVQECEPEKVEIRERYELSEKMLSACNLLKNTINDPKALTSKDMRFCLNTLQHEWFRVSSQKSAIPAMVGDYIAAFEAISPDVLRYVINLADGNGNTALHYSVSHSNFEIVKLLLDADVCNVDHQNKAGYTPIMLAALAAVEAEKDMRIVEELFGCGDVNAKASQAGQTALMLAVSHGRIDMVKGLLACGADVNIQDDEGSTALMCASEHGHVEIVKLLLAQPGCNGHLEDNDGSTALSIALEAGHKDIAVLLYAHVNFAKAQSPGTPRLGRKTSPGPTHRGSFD
Description: affinity purification with mass spectrometry; anti-GFP IP from lysates of MCF7 cells expressing the GFP-tagged bait (KANK1-GFP or GFP-NOS1APc; GFP-only as control), on-beads digestion, label-free quantification, 3 biological replicates.

For test [2], the target named is T2, GFP-tagged KANK1 (KANK1-GFP), expressed in HEK293T cells (UniProt Q14678).
T2 sequence: T1 sequence
Description: affinity purification with mass spectrometry; anti-GFP IP and MS in HEK293T cells (Supplementary Fig. 6a).

In the case of KIF21A (from UniProt Q7Z4S6 1-1674), the binding result in test [1] is listed as “binds”.
Same read-out and setting: to “PPFIBP1 (Liprinβ1) (from UniProt Q86W92 1-1011)” belongs “binds”.
Still for that read-out and setting: under “YWHAB (14-3-3 protein) (from UniProt P31946 1-246)” stands “binds”.
For the molecule “YWHAE (14-3-3 protein) (from UniProt P62258 1-255)”, the binding result in test [1] is “binds”.

B1: NOS1AP-splice isoform chromosome 1 open reading frame 226 (C1orf226), as identified by MS in MCF7 cells (protein, UniProt A1L170 1-272)
chain: MFENLNTALTPKLQASRSFPHLSKPVAPGSAPLGSGEPGGPGLWVGSSQHLKNLGKAMGAKVNDFLRRKEPSSLGSVGVTEINKTAGAQLASGTDAAPEAWLEDERSVLQETFPRLDPPPPITRKRTPRALKTTQDMLISSQPVLSSLEYGTEPSPGQAQDSAPTAQPDVPADASQPEATMEREERGKVLPNGEVSLSVPDLIHKDSQDESKLKMTECRRASSPSLIERNGFKLSLSPISLAESWEDGSPPPQARTSSLDNEGPHPDLLSFE
As to B1, the binding entry in test [1] was “binds”.

B2: C1orf226, as identified by MS in HEK293T cells (protein, UniProt A1L170 1-272)
chain: B1 chain
As for B2, in test [2], the binding entry is reported as “binds”.

B3: YWHAQ (14-3-3 protein) (protein, UniProt P27348 1-245)
chain: MEKTELIQKAKLAEQAERYDDMATCMKAVTEQGAELSNEERNLLSVAYKNVVGGRRSAWRVISSIEQKTDTSDKKLQLIKDYREKVESELRSICTTVLELLDKYLIANATNPESKVFYLKMKGDYFRYLAEVACGDDRKQTIDNSQGAYQEAFDISKKEMQPTHPIRLGLALNFSVFYYEILNNPELACTLAKTAFDEAIAELDTLNEDSYKDSTLIMQLLRDNLTLWTSDSAGEECDAAEGAEN
With B3, in test [1], the binding result is “binds”.

The values above are taken from publication PMC11607453.
